Test results as given in the supplement of paper PMC4635364.
Structures can show the parent of a compound that is named as a salt. Some of the results follow. This data set is noisy: repeats of one test often differ as much as different tests do.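 ReNCell VM, a human fetal ventral-midbrain neural progenitor line, was differentiated without mitogens. Blinded raters scored images stained for doublecortin (early neurons) or tyrosine hydroxylase (dopaminergic neurons) against untreated wells (0 = no change). Scores were averaged across repeats and both raters, and compounds averaging 2 or more were selected as hits for retesting.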 Where a SMILES comes first, the peptide text is derived from it.

system: ReNCell VM; assay: dopaminergic neuron differentiation score (TH+ cell fraction vs untreated, manual image score) (score (0 to 3)); higher = more TH+ dopaminergic neuron differentiation; conditions: library: Spectrum; 2 uM; 4 weeks; BDNF 10 ng/ml + GDNF 10 ng/ml

Dopaminergic neuron differentiation score, inactive:
CCN(CC)CCOC(=O)c1ccc(N)cc1 0
NC(=O)CC[C@H](NC(=O)[C@@H](N)CO)C(=O)O (H-Ser-Gln-OH) 0
CC=CC1=C(C(=O)O)N2C(=O)[C@@H](NC(=O)[C@H](N)c3ccc(O)cc3)[C@H]2SC1 0
CC1CCc2cc(F)cc3c(=O)c(C(=O)O)cn1c23 (stereo unspecified) 0
CN(C)CC/C=C1/c2ccccc2Sc2ccc(Cl)cc21 0
C=C1C[C@H]2[C@@H]3C=C(C)C4=CC(=O)CC[C@]4(C)[C@H]3CC[C@]2(C)[C@@]1(OC(C)=O)C(C)=O 0
CCCCC(=O)Oc1ccccc1C(=O)O 0
Cc1cc(O)c2c(O)c3c(O)cccc3cc2c1 0

Quoted from above, two compounds:
Dopaminergic neuron differentiation score, inactive:
CC=CC1=C(C(=O)O)N2C(=O)[C@@H](NC(=O)[C@H](N)c3ccc(O)cc3)[C@H]2SC1 0
CC1CCc2cc(F)cc3c(=O)c(C(=O)O)cn1c23 (stereo unspecified) 0

same assay, conditions: library: Tocriscreen; 2 uM; 4 weeks; BDNF 10 ng/ml + GDNF 10 ng/ml

Dopaminergic neuron differentiation score, inactive:
C[C@@H]1C[C@H]2[C@@H]3CCC4=CC(=O)C=C[C@]4(C)[C@@]3(F)[C@@H](O)C[C@]2(C)[C@@]1(O)C(=O)CO [Dexamethasone] 0
O=C(c1ccc(F)cc1)C1CCN(CCn2c(=S)[nH]c3ccccc3c2=O)CC1 [Altanserin hydrochloride] 0
CC(Cc1ccccc1)(NC(=O)CN)c1ccccc1 (stereo unspecified) [Remacemide hydrochloride] 0
CCN(CC)c1ccc(/C=N/NC(=O)c2ccc(O)cc2)cc1 0
O=C1NN(C(=O)Nc2ccc(Br)cc2)[C@@H](c2ccccc2)[C@@H]1c1ccccc1 0
CCOC(=O)[C@H](CCc1ccccc1)N[C@H]1CCc2ccccc2N(CC(=O)O)C1=O [Benazepril hydrochloride] 0
CS(=O)(=O)Nc1c(O)ccc2c1CCCC2C1=NCCN1 (stereo unspecified) 0
COc1[nH]c2ccc(F)cc2c1C(=O)OCC1CCN(CCNS(C)(=O)=O)CC1.NS(=O)(=O)O 0
